Read-outs that look alike come from different tables or passages of the source. These are yes or no findings as the source states them, for the method shown. In cells and extracts the contact can be indirect. Some binding calls cover weakened binding; strength is not graded here. Sequences can lack the tags named with a protein.
What was measured:
Test in all cases: co-IP
[1] = target: T1, HA-Fli1 (pcDNA3-HA-Fli1, full-length mouse Fli1) (mouse) (UniProt Q9JJ28)
T1 sequence: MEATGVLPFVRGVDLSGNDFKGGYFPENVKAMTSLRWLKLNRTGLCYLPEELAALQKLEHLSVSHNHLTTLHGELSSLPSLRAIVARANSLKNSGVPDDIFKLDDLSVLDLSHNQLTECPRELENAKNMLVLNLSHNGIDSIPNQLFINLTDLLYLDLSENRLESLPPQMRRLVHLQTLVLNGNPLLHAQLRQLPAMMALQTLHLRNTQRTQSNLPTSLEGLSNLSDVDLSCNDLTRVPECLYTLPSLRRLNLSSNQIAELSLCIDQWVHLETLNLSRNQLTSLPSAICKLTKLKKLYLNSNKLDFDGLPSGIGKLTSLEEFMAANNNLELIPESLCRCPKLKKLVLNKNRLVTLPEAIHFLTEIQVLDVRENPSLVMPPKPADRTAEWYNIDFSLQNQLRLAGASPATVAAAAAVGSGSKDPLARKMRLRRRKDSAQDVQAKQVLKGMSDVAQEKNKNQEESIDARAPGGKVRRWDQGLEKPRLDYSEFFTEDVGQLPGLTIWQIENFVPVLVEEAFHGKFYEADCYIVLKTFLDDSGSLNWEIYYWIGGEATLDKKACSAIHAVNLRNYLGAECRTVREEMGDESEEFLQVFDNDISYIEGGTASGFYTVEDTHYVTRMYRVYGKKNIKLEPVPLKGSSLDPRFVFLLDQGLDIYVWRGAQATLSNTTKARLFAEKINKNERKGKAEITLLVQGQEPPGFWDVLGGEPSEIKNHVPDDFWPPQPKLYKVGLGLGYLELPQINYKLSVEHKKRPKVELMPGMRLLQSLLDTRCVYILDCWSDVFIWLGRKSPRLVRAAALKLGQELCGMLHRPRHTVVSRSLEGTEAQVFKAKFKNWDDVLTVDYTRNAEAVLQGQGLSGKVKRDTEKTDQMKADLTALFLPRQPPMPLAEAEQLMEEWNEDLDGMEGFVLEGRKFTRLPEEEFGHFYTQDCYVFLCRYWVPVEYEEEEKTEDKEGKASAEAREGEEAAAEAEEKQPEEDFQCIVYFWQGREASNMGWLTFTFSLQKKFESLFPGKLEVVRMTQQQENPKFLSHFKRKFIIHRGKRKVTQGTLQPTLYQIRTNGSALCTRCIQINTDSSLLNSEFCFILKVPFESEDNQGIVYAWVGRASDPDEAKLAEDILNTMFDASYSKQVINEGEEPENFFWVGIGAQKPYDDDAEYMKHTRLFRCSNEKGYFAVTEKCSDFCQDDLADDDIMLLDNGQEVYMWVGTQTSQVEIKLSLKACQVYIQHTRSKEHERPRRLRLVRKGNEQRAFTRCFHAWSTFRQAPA

Chains of the proteins cited; added tags and fusions are not shown.
UniProt Q99836: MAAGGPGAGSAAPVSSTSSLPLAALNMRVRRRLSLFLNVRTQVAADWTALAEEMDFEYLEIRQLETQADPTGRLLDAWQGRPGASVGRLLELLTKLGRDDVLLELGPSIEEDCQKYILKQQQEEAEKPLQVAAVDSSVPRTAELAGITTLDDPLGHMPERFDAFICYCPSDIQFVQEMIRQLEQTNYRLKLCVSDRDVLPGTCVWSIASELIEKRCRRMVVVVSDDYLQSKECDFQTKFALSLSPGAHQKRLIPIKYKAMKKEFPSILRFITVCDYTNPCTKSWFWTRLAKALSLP

[2] = target: HA-Fli1-LRR (HA-tagged Fli1 N-terminal 400 amino acids) (UniProt Q9JJ28)
[3] = target: T1, HA-Fli1 (pcDNA3-HA-Fli1, full-length mouse Fli1) (mouse); remark: listed apart in the source
Flag-TRB3 = target: T2, Flag-TRB3 (UniProt Q8K4K2)
T2 sequence: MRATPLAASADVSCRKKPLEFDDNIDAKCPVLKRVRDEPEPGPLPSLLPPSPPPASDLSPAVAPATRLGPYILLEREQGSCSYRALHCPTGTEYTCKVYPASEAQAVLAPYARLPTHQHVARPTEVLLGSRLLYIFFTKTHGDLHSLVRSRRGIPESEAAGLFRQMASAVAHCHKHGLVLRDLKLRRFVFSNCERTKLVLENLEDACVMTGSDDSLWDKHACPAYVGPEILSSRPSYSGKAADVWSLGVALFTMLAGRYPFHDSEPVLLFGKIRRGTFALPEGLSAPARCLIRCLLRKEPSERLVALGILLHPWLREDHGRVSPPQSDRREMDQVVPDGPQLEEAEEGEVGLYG

Myc-MyD88 (from UniProt Q99836 1-296)
binding [1]: binds

B1: Flag-TRB3 (protein, UniProt Q8K4K2 1-354)
chain: T2 sequence
binding [2]: binds

B2: Myc-TRB3 (protein, UniProt Q8K4K2 1-354)
chain: T2 sequence
binding [3]: binds

B3: HA-TRB3 (protein, UniProt Q8K4K2 1-354)
chain: T2 sequence
binding [3]: binds

B4: Flightless-homolog 1 (Fli1), endogenous in Min6 cells (protein, UniProt Q9JJ28 1-1271)
chain: T1 sequence
binding (Flag-TRB3): binds

Reference: publication doi:10.1101/2022.10.09.511391
